Data reported in doi:10.1101/2020.11.16.384750.
Results are given in words; binding and its absence hold for the method and conditions named. Binding seen in cells or lysates may run through a third protein. Here binding means that the protein was enriched with, or labelled near, the bait; the list need not be complete. For some assays here: No binding means not detected with the bait. For some assays here: Where a sequence is shown, tags or fusion partners need not be part of it. Blank lines part the entries; values can stand above or below the binder they belong to.

Chains of the proteins cited; added tags and fusions are not shown.
UniProt P31749: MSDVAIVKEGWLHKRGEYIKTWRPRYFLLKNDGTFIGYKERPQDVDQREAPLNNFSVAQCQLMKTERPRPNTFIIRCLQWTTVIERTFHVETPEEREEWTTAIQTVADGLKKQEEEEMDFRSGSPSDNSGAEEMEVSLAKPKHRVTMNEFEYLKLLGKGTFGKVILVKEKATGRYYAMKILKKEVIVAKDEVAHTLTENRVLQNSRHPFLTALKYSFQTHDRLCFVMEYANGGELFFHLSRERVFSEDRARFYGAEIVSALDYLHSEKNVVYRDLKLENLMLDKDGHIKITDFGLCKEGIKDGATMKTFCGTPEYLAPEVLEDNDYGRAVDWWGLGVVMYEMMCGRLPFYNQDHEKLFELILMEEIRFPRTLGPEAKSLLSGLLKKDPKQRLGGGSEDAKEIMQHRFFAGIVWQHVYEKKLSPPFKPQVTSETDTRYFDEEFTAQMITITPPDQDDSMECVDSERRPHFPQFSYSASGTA

Legend:
Assay in all cases: affinity purification with mass spectrometry
[1] = molecular target: T1, TRAF2, C-terminal His-GSG-Flag tagged bait (wild type) (UniProt Q12933)
T1 sequence: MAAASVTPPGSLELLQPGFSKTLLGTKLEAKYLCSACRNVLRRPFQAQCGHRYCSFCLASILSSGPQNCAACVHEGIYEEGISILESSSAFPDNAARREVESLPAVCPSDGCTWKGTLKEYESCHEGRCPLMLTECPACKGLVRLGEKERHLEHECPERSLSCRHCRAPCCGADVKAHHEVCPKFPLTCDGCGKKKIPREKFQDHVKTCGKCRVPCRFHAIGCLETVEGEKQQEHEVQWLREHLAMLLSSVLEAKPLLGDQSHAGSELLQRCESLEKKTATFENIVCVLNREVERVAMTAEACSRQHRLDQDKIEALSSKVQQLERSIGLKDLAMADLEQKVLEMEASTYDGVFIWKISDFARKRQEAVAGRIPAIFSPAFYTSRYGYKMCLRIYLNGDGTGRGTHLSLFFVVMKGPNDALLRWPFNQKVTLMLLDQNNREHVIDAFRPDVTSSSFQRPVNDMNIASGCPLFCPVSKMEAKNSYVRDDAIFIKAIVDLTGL

[2] = molecular target: AKT1, C-terminal His-GSG-Flag tagged bait (UniProt P31749)
[3] = molecular target: T2, MAP3K7 (TAK1), C-terminal His-GSG-Flag tagged bait (UniProt O43318)
T2 sequence: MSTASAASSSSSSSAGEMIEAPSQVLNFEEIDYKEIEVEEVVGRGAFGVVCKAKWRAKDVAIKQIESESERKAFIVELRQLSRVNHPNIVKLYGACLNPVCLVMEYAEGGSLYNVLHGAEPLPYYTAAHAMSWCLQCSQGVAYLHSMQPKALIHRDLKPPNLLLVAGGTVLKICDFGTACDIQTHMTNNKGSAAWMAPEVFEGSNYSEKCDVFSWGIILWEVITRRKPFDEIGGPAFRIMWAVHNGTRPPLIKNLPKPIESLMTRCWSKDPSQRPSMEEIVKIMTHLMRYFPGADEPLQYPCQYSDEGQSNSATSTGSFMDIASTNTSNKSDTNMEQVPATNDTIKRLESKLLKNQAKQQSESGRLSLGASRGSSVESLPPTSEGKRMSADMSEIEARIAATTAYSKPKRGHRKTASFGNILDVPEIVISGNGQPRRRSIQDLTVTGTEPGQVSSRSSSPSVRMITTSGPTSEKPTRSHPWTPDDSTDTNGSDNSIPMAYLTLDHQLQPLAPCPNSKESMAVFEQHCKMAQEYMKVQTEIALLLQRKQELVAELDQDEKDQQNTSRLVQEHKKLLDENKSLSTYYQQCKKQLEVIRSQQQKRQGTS

[4] = molecular target: T3, TRAF2, C-terminal His-GSG-Flag tagged bait (wild type), Q12933; settings: remark: other sources report otherwise
T3 chain: T1 sequence

B2: CDC37 (protein, UniProt Q16543 1-378)
chain: MVDYSVWDHIEVSDDEDETHPNIDTASLFRWRHQARVERMEQFQKEKEELDRGCRECKRKVAECQRKLKELEVAEGGKAELERLQAEAQQLRKEERSWEQKLEEMRKKEKSMPWNVDTLSKDGFSKSMVNTKPEKTEEDSEEVREQKHKTFVEKYEKQIKHFGMLRRWDDSQKYLSDNVHLVCEETANYLVIWCIDLEVEEKCALMEQVAHQTIVMQFILELAKSLKVDPRACFRQFFTKIKTADRQYMEGFNDELEAFKERVRGRAKLRIEKAMKEYEEEERKKRLGPGGLDPVEVYESLPEELQKCFDVKDVQMLQDAISKMDPTDAKYHMQRCIDSGLWVPNSKASEAKEGEEAGPGDPLLEAVPKTGDEKDVSV
- binding [2]: binds
- binding [3]: binds

B4: CASP8, Q14790 1-479 (protein)
chain: MDFSRNLYDIGEQLDSEDLASLKFLSLDYIPQRKQEPIKDALMLFQRLQEKRMLEESNLSFLKELLFRINRLDLLITYLNTRKEEMERELQTPGRAQISAYRVMLYQISEEVSRSELRSFKFLLQEEISKCKLDDDMNLLDIFIEMEKRVILGEGKLDILKRVCAQINKSLLKIINDYEEFSKERSSSLEGSPDEFSNGEELCGVMTISDSPREQDSESQTLDKVYQMKSKPRGYCLIINNHNFAKAREKVPKLHSIRDRNGTHLDAGALTTTFEELHFEIKPHDDCTVEQIYEILKIYQLMDHSNMDCFICCILSHGDKGIIYGTDGQEAPIYELTSQFTGLKCPSLAGKPKVFFIQACQGDNYQKGIPVETDSEEQPYLEMDLSSPQTRYIPDEADFLLGMATVNNCVSYRNPAEGTWYIQSLCQSLRERCPRGDDILTILTEVNYEVSNKDDKKNMGKQMPQPTFTLRKKLVFPSD
- binding [4]: no binding

The remaining lines, values ahead:

- binding [1]: binds
B1: IKBKE (protein, UniProt Q14164 1-716)
chain: MQSTANYLWHTDDLLGQGATASVYKARNKKSGELVAVKVFNTTSYLRPREVQVREFEVLRKLNHQNIVKLFAVEETGGSRQKVLVMEYCSSGSLLSVLESPENAFGLPEDEFLVVLRCVVAGMNHLRENGIVHRDIKPGNIMRLVGEEGQSIYKLTDFGAARELDDDEKFVSVYGTEEYLHPDMYERAVLRKPQQKAFGVTVDLWSIGVTLYHAATGSLPFIPFGGPRRNKEIMYRITTEKPAGAIAGAQRRENGPLEWSYTLPITCQLSLGLQSQLVPILANILEVEQAKCWGFDQFFAETSDILQRVVVHVFSLSQAVLHHIYIHAHNTIAIFQEAVHKQTSVAPRHQEYLFEGHLCVLEPSVSAQHIAHTTASSPLTLFSTAIPKGLAFRDPALDVPKFVPKVDLQADYNTAKGVLGAGYQALRLARALLDGQELMFRGLHWVMEVLQATCRRTLEVARTSLLYLSSSLGTERFSSVAGTPEIQELKAAAELRSRLRTLAEVLSRCSQNITETQESLSSLNRELVKSRDQVHEDRSIQQIQCCLDKMNFIYKQFKKSRMRPGLGYNEEQIHKLDKVNFSHLAKRLLQVFQEECVQKYQASLVTHGKRMRVVHETRNHLRLVGCSVAACNTEAQGVQESLSKLLEELSHQLLQDRAKGAQASPPPIAPYPSPTRKDLLLHMQELCEGMKLLASDLLDNNRIIERLNRVPAPPDV

- binding [4]: no binding
B3: RIPK1, Q13546 1-671 (protein)
chain: MQPDMSLNVIKMKSSDFLESAELDSGGFGKVSLCFHRTQGLMIMKTVYKGPNCIEHNEALLEEAKMMNRLRHSRVVKLLGVIIEEGKYSLVMEYMEKGNLMHVLKAEMSTPLSVKGRIILEIIEGMCYLHGKGVIHKDLKPENILVDNDFHIKIADLGLASFKMWSKLNNEEHNELREVDGTAKKNGGTLYYMAPEHLNDVNAKPTEKSDVYSFAVVLWAIFANKEPYENAICEQQLIMCIKSGNRPDVDDITEYCPREIISLMKLCWEANPEARPTFPGIEEKFRPFYLSQLEESVEEDVKSLKKEYSNENAVVKRMQSLQLDCVAVPSSRSNSATEQPGSLHSSQGLGMGPVEESWFAPSLEHPQEENEPSLQSKLQDEANYHLYGSRMDRQTKQQPRQNVAYNREEERRRRVSHDPFAQQRPYENFQNTEGKGTAYSSAASHGNAVHQPSGLTSQPQVLYQNNGLYSSHGFGTRPLDPGTAGPRVWYRPIPSHMPSLHNIPVPETNYLGNTPTMPFSSLPPTDESIKYTIYNSTGIQIGAYNYMEIGGTSSSLLDSTNTNFKEEPAAKYQAIFDNTTSLTDKHLDPIRENLGKHWKNCARKLGFTQSQIDEIDHDYERDGLKEKVYQMLQKWVMREGIKGATVGKLAQALHQCSRIDLLSSLIYVSQN
